In the supplement of paper PMC12819154, “High-throughput peptide-centric local stability assay extends protein–ligand identification to membrane proteins, tissues and bacteria” (Nature Structural & Molecular Biology, 2025) one finds log2 fold change data, which are given here for 40 targets.

Protein sequences, listed by entry. Tags and fused reporters are not part of them. Lines headed by an entry give the natural chain unless they say otherwise; changes in a name come on top.
UniProt P37641: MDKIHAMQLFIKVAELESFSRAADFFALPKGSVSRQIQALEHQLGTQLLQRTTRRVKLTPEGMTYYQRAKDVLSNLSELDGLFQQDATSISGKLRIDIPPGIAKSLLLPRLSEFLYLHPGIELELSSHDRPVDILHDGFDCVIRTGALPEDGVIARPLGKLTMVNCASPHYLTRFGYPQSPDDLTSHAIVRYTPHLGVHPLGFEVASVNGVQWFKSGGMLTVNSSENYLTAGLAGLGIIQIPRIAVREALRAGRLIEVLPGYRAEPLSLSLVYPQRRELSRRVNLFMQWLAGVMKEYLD
UniProt P37650: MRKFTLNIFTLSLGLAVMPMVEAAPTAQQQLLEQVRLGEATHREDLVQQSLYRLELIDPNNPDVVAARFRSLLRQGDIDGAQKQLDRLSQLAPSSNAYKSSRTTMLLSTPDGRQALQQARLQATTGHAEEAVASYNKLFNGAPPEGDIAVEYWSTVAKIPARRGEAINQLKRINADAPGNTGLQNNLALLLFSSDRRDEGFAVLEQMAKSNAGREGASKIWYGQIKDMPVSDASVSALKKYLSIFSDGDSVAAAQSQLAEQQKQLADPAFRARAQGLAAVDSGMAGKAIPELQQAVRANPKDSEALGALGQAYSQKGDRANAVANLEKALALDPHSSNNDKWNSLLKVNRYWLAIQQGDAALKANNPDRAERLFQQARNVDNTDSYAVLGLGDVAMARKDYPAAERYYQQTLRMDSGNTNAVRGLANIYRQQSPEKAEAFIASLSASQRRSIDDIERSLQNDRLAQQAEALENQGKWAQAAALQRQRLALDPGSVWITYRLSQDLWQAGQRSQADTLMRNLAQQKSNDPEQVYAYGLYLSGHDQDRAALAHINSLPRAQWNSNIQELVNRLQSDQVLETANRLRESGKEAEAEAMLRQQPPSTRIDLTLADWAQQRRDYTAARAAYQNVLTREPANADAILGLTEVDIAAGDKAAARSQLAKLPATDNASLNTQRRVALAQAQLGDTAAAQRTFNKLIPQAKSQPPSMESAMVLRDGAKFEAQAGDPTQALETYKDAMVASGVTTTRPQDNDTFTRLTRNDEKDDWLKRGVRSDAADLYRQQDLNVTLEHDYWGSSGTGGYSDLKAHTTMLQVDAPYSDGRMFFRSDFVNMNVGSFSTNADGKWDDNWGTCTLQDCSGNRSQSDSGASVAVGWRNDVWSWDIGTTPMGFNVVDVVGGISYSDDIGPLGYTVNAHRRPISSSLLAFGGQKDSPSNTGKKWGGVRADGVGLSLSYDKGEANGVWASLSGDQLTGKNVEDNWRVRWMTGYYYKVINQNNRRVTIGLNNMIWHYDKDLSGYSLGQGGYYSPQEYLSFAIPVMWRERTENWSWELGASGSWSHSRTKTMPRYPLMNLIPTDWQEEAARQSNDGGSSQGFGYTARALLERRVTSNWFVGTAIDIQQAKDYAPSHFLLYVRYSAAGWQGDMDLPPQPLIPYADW
UniProt P38104: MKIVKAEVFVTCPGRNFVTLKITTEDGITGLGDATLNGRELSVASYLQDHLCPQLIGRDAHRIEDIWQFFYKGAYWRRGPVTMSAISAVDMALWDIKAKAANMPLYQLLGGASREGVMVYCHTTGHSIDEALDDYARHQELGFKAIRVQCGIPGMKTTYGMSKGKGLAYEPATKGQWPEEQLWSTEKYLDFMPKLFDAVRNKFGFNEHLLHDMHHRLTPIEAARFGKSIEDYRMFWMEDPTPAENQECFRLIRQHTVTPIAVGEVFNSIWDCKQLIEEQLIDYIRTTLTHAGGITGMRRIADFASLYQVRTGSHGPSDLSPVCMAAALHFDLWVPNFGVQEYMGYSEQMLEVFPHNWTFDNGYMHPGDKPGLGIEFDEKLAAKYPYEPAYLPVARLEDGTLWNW
UniProt P36677: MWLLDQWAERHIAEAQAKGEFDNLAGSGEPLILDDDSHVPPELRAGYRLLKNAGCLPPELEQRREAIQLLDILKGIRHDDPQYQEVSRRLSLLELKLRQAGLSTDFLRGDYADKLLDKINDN
UniProt P37047: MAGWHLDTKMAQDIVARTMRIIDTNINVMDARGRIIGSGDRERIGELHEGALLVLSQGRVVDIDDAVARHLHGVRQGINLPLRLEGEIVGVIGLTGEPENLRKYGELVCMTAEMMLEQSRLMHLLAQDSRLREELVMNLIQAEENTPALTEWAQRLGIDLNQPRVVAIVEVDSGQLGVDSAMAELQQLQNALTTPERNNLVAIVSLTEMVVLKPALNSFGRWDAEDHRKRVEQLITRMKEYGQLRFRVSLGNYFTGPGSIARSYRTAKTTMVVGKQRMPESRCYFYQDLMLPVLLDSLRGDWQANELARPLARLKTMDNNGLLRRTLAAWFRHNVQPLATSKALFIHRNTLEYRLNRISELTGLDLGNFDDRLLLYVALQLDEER
UniProt P37642: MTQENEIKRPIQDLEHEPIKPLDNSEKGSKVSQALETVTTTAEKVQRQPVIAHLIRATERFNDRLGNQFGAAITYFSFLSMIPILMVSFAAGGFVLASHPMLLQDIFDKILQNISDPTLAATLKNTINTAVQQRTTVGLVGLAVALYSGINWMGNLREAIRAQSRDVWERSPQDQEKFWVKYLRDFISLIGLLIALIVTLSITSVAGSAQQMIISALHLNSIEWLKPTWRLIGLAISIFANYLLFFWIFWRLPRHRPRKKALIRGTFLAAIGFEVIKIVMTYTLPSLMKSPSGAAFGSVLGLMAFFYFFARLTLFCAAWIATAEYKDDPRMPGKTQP
UniProt P39265: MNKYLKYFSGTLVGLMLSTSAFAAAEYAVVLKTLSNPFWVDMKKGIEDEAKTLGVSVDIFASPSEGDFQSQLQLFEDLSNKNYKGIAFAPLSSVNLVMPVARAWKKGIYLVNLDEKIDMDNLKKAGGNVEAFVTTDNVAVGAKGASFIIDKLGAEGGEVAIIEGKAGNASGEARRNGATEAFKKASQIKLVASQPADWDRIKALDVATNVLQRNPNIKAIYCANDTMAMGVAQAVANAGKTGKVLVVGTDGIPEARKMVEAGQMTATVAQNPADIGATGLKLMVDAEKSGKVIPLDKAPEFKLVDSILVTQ
UniProt P33013: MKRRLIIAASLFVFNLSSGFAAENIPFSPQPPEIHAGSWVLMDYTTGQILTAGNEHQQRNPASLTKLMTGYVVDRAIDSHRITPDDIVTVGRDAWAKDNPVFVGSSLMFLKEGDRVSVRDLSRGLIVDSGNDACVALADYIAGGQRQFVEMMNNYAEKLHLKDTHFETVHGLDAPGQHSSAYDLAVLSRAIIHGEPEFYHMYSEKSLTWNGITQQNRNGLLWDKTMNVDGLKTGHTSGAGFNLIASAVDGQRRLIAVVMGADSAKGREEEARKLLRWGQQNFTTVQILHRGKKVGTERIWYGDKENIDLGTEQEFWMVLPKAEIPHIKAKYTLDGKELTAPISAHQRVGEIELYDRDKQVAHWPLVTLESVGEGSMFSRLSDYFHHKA
UniProt P38105: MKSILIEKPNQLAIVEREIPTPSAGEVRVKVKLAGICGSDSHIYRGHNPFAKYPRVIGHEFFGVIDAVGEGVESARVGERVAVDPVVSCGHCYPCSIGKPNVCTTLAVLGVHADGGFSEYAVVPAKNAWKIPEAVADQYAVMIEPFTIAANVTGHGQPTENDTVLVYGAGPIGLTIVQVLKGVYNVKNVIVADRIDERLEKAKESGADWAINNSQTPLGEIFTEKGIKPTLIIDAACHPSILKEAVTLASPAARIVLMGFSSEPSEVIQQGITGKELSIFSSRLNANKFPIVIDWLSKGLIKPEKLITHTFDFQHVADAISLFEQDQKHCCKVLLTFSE
UniProt P38521: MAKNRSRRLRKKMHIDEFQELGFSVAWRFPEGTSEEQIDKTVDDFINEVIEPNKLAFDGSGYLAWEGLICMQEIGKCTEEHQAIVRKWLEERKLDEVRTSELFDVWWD
UniProt P31826: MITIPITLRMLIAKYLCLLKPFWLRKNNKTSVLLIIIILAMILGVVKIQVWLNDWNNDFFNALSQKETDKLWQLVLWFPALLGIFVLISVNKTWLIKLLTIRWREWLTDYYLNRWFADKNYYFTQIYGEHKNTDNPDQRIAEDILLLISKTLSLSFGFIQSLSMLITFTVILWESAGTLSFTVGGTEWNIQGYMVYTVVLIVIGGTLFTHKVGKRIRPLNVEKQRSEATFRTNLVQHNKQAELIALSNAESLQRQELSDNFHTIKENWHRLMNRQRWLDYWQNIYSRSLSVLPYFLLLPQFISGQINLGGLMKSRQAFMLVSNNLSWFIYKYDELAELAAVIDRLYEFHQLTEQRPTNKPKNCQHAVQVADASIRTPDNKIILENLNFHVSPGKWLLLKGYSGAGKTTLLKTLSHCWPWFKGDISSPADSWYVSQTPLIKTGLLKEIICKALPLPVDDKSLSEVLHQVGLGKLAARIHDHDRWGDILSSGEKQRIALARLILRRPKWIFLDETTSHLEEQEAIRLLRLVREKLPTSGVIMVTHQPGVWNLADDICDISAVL
UniProt P31979: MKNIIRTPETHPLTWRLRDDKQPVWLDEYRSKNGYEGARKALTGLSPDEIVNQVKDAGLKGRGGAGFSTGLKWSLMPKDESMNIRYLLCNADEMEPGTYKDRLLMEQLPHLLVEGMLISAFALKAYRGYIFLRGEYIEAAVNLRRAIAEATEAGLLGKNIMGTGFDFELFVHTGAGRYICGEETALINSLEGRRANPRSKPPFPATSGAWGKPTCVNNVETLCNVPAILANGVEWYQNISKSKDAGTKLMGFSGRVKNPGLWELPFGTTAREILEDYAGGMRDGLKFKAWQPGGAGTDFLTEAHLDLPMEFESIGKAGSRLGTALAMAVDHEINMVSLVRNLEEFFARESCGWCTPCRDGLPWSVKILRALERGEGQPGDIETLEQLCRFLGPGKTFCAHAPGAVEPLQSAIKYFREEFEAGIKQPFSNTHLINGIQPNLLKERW
UniProt P37653: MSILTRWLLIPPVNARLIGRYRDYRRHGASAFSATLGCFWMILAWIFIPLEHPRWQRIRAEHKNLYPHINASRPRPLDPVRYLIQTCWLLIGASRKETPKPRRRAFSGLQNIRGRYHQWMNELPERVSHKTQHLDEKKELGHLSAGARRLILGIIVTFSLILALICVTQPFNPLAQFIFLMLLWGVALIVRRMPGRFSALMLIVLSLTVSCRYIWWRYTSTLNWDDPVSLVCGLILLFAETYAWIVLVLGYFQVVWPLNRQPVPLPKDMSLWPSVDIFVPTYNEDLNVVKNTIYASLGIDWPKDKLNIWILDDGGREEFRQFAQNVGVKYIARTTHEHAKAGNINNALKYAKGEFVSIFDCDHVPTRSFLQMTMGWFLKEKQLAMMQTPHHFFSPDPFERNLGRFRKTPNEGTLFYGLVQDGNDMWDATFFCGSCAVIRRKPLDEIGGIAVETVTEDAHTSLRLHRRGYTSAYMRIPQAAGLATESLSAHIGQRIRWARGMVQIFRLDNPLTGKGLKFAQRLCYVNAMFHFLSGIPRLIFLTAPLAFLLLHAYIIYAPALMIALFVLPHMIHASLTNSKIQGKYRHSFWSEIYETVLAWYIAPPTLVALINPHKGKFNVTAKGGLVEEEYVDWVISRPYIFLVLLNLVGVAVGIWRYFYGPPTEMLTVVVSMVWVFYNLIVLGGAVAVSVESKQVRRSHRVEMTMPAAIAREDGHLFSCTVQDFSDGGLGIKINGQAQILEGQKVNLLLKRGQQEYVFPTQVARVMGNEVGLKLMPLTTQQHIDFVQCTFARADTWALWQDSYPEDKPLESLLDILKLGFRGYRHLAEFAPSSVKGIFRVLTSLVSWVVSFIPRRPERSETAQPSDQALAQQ
UniProt P37750: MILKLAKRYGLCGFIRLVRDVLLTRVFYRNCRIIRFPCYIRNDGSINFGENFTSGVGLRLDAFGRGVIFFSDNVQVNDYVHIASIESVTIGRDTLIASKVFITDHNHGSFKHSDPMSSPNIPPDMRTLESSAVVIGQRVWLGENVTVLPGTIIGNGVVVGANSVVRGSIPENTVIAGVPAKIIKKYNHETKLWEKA
UniProt P39279: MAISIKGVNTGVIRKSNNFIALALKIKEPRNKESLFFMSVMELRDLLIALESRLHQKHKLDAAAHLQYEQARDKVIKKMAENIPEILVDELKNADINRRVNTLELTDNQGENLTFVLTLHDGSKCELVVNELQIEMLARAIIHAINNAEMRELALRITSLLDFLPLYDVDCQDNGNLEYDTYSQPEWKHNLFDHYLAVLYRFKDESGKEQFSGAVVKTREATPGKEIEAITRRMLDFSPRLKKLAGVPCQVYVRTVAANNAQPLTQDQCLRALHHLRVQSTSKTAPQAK
UniProt P33218: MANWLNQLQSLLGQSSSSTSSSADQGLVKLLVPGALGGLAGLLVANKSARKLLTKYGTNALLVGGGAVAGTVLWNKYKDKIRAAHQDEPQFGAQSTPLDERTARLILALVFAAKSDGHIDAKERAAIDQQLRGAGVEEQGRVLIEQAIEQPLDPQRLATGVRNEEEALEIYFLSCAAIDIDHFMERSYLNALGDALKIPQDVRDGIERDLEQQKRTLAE
UniProt P33355: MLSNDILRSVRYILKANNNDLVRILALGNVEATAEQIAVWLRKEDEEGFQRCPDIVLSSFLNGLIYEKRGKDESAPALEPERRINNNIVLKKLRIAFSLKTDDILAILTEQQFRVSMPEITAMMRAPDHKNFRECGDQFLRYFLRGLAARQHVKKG

The list shows a part of the results, in another mix than the full data. Small differences around the control level are noise.
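Note: lysate desalted by size exclusion to strip endogenous ATP, peptide intensities built from DIA-NN precursor signals, and peptides missing any value discarded before comparison.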

Compound in this assay: Nc1ncnc2c1ncn2[C@@H]1O[C@H](COP(=O)(O)OP(=O)(O)OP(=O)(O)O)[C@@H](O)[C@H]1O [adenosine 5'-triphosphate]
Kind of assay: log2 fold change of tryptic peptide abundance, ligand vs vehicle (limited proteolysis) (log2 ratio); higher = more trypsin-susceptible (destabilized). The settings on record: ligand concentration: 5 mM; sample: E. coli desalted lysate; replicate design: treated before aliquoting. The method, then: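 HT-PELSA: desalted E. coli K-12 BW25113 lysate (with 12 mM MgCl2) incubated with 5 mM ATP (pH 7) or water for 30 min at 25 C, then a 4 min trypsin pulse at 22 C. Peptides were quantified by DIA-MS (4 replicates). Value is the peptide log2 fold change (treated/control); negative = stabilized. Scale: negative = ligand-stabilized region.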
Regarding “UniProt P37641 (peptide sequence: AADFFALPK, peptide start residue: 22)”, the log2 fold change was found to be 0.41.

Turning to “UniProt P37650 (peptide sequence: AIPELQQAVR, peptide start residue: 288)”, the log2 fold change was determined as 0.296.

As for “UniProt P38104 (peptide sequence: GLAYEPATK, peptide start residue: 166)”, the log2 fold change was -0.00266.

With “UniProt P32677 (peptide sequence: VKEVAHACGFVDSNYFCR, peptide start residue: 237)”, the log2 fold change is 0.766.

For the target “UniProt P33591 (peptide sequence: LRGLNDKQTER, peptide start residue: 213)”, the log2 fold change worked out at 0.345.

“UniProt P36677 (peptide sequence: HIAEAQAK, peptide start residue: 11)”: the log2 fold change was -0.474.

With “UniProt P37047 (peptide sequence: MKEYGQLR, peptide start residue: 238)”, the log2 fold change was -0.418.

On to “UniProt P37642 (peptide sequence: PIQDLEHEPIKPLDNSEK, peptide start residue: 10)”, for which the log2 fold change is -0.358.

For the target “UniProt P39172 (peptide sequence: GYFVFHDAYGYFEK, peptide start residue: 202)”, the log2 fold change was 0.231.

Turning to “UniProt P39265 (peptide sequence: SGKVIPLDKAPEFK, peptide start residue: 289)”, the log2 fold change stood at 0.214.

Take “UniProt P32685 (peptide sequence: VLTNSETNSIK, peptide start residue: 33)”: the log2 fold change worked out at 0.216.

With “UniProt P33013 (peptide sequence: LSDYFHHKA, peptide start residue: 380)”, the log2 fold change is -0.811.

Take “UniProt P33234 (peptide sequence: KLKSENTSYSQIITTCR, peptide start residue: 182)”: the log2 fold change was 1.31.

As to “UniProt P38036 (peptide sequence: FNHLFQSIK, peptide start residue: 379)”, the log2 fold change stood at 0.55.

Take “UniProt P38105 (peptide sequence: ELSIFSSR, peptide start residue: 276)”: the log2 fold change was -0.418.

For “UniProt P37657 (peptide sequence: LFSMLNHEK, peptide start residue: 82)”, the log2 fold change is -0.458.

Turning to “UniProt P37147 (peptide sequence: LDHKDDRQD, peptide start residue: 150)”, the log2 fold change turned out to be 0.275.

In the case of “UniProt P38521 (peptide sequence: CTEEHQAIVR, peptide start residue: 77)”, the log2 fold change is -0.232.

In the case of “UniProt P31069 (peptide sequence: TVLAVSDSK, peptide start residue: 341)”, the log2 fold change is -0.0677.

For “UniProt P33916 (peptide sequence: GEILNCLDR, peptide start residue: 132)”, the log2 fold change is 0.465.

As for “UniProt P31224 (peptide sequence: KNEDIEHSHTVDHH, peptide start residue: 1036)”, the log2 fold change was -0.57.

As for “UniProt P31826 (peptide sequence: TNLVQHNK, peptide start residue: 232)”, the log2 fold change is -0.482.

As for “UniProt P31979 (peptide sequence: EILEDYAGGMRDGLKFK, peptide start residue: 272)”, the log2 fold change is -0.234.

In the case of “UniProt P37351 (peptide sequence: HEIVAHLVER, peptide start residue: 17)”, the log2 fold change is 0.646.

“UniProt P37653 (peptide sequence: AFSGLQNIR, peptide start residue: 105)”: the log2 fold change is -0.0531.

Take “UniProt P37049 (peptide sequence: NHLIGETLK, peptide start residue: 130)”: the log2 fold change was -0.32.

Turning to “UniProt P37330 (peptide sequence: ISSQHIANWLR, peptide start residue: 637)”, the log2 fold change was -0.775.

Take “UniProt P33354 (peptide sequence: IQFASIGATTKEDAAK, peptide start residue: 61)”: the log2 fold change is -0.00177.

Turning to “UniProt P37750 (peptide sequence: VFITDHNHGSFK, peptide start residue: 100)”, the log2 fold change is -0.178.

With “UniProt P33229 (peptide sequence: TTGNNNGGVHV, peptide start residue: 54)”, the log2 fold change came out at 0.158.

On to “UniProt P39279 (peptide sequence: FKDESGKEQFSGAVVK, peptide start residue: 202)”, for which the log2 fold change came to 0.293.

In the case of “UniProt P36548 (peptide sequence: VVVLDPGHGGIDTGAIGR, peptide start residue: 58)”, the log2 fold change turned out to be 0.474.

Consider “UniProt P33218 (peptide sequence: ERAAIDQQLR, peptide start residue: 123)”, for which the log2 fold change worked out at 0.969.

In the case of “UniProt P31471 (peptide sequence: NFTVVVGDKDVVTGK, peptide start residue: 331)”, the log2 fold change was -0.459.

As to “UniProt P33355 (peptide sequence: INNNIVLK, peptide start residue: 84)”, the log2 fold change was found to be 0.513.

Turning to “UniProt P31130 (peptide sequence: QDAAPPPPHAIEDGYR, peptide start residue: 27)”, the log2 fold change is -0.297.

“UniProt P33228 (peptide sequence: EQLAAALPR, peptide start residue: 40)”: the log2 fold change came out at 0.25.

“UniProt P37676 (peptide sequence: AFSDALGNQVR, peptide start residue: 297)”: the log2 fold change was 0.712.

Consider “UniProt P33360 (peptide sequence: LVEHDSGEIR, peptide start residue: 50)”, for which the log2 fold change was -0.333.

As for “UniProt P33230 (peptide sequence: EGGTPTNWTR, peptide start residue: 11)”, the log2 fold change is -0.323.
